Earlier results in US9211288B2 (priority 2012, dated 2015).

Conditions: plasma; cited from earlier work

Which half-life in humans does the source give for COc1cc2c(cc1OC)C(=O)C(CC1CCN(Cc3ccccc3)CC1)C2 (stereo not shown) [Donepezil] here?
The half-life in humans was “approximately 70 hours”.
